No constants are given. Whether binding was seen depends on the method and setting. For part of these data: In cells and extracts the contact can be indirect. Some results given as binding are weak or reduced against the parent protein; the word gives no strength. Where a sequence is shown, tags or fusion partners need not be part of it.

We go through 4 molecules from article PMC7749160.

Assay [1] addresses T1, Mycobacterium smegmatis HelD-FLAG (Mycobacterium smegmatis) (UniProt A0QUE0).
T1 sequence: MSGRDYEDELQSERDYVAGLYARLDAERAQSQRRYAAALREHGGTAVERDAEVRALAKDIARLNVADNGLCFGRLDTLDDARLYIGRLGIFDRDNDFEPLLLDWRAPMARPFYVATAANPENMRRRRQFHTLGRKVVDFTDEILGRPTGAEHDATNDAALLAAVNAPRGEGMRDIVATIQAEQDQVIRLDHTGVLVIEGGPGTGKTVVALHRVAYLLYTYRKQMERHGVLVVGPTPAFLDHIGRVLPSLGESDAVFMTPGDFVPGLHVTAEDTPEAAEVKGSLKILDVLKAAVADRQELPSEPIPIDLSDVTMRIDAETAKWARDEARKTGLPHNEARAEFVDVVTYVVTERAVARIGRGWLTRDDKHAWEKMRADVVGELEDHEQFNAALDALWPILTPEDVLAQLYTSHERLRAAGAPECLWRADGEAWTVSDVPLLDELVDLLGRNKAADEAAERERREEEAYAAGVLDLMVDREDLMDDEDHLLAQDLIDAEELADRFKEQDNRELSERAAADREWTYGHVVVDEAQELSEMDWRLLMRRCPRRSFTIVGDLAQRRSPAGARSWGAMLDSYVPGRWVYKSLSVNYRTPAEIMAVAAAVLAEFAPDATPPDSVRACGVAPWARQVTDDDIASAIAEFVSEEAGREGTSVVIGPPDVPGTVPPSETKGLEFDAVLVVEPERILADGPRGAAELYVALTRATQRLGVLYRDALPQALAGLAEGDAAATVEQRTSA
The experiment in a line: co-IP; M. smegmatis lysates (20 mM Tris-HCl pH 8, 150 mM KCl, 1 mM MgCl2) on ANTI-FLAG M2 agarose overnight at 4 °C, eluted with 3x FLAG peptide; SDS-PAGE with bands identified by mass spectrometry, or western blot (anti-β, anti-σA). For orientation: Immunoblotting shows a protein as a band on a membrane.

Assay [2] concerns the target Mycobacterium smegmatis RNA polymerase core, recombinant (strain LK1853, for biochemical assays) (Mycobacterium smegmatis) (UniProt A0QSL8+P60281+A0QS66+A0QWT1). The experiment in a line: native gel or EMSA; 7% Tris-acetate native gel, 1x STB buffer (50 mM Tris-HCl pH 8.0, 5 mM Mg acetate, 100 µM DTT, 50 mM KCl, 50 µg/ml BSA); RNAP 25 pmol, HelD 125 pmol, σA 1250 pmol, RbpA 1250 pmol; RNAP first reconstituted with/without HelD (37 °C, 45 min), then RbpA and/or σA (37 °C, 45 min); proteins of each band identified by MALDI MS; both purified. (In general: In EMSA bound probe runs differently from free probe, usually more slowly.)

The target in assay [3] is Preformed complex of Mycobacterium smegmatis RNAP core (m3) and HelD (m1) (Mycobacterium smegmatis | Mycobacterium smegmatis (strain ATCC 700084/mc2 155)) (UniProt A0QSL8+P60281+A0QS66+A0QWT1+A0QUE0). The assay is described as above.
Assay [4] has as its target FLAG-tagged Mycobacterium smegmatis RNAP (FLAG on the β subunit), strain LK1468 (Mycobacterium smegmatis | Mycobacterium smegmatis (endogenous in M. smegmatis mc2 155)) (UniProt P60281+A0QSL8+A0QS66+A0QWT1). The assay is described as follows: co-IP; M. smegmatis lysates (20 mM Tris-HCl pH 8, 150 mM KCl, 1 mM MgCl2) on ANTI-FLAG M2 agarose overnight at 4 °C, eluted with 3x FLAG peptide; SDS-PAGE with bands identified by mass spectrometry, or western blot (anti-β, anti-σA).

The target of assay [5] is T2, Mycobacterium smegmatis RbpA-FLAG (Mycobacterium smegmatis) (UniProt A0QZ11).
T2 sequence: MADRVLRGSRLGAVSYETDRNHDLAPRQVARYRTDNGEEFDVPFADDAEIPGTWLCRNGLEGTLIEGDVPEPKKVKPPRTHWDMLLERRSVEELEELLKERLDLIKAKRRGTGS
Described as above.

B1: Mycobacterium smegmatis RbpA, endogenous (protein, UniProt A0QZ11 1-114)
chain: T2 sequence
Consider B1, for which, in assay [1], the binding entry is on record as “binds”.

B2: Mycobacterium smegmatis RbpA (MSMEG_3858), recombinant (protein, UniProt A0QZ11 1-114)
chain: T2 sequence
With B2, the binding entry in assay [2] and in assay [3] was “binds” throughout.

B3: Mycobacterium smegmatis HelD (MSMEG_2174), endogenous (protein, UniProt A0QUE0 1-736)
chain: T1 sequence
For B3, the binding result in assay [4] and in assay [5] was “binds” throughout.

B4: Mycobacterium smegmatis HelD (MSMEG_2174), recombinant (protein, UniProt A0QUE0 2-736)
chain: SGRDYEDELQSERDYVAGLYARLDAERAQSQRRYAAALREHGGTAVERDAEVRALAKDIARLNVADNGLCFGRLDTLDDARLYIGRLGIFDRDNDFEPLLLDWRAPMARPFYVATAANPENMRRRRQFHTLGRKVVDFTDEILGRPTGAEHDATNDAALLAAVNAPRGEGMRDIVATIQAEQDQVIRLDHTGVLVIEGGPGTGKTVVALHRVAYLLYTYRKQMERHGVLVVGPTPAFLDHIGRVLPSLGESDAVFMTPGDFVPGLHVTAEDTPEAAEVKGSLKILDVLKAAVADRQELPSEPIPIDLSDVTMRIDAETAKWARDEARKTGLPHNEARAEFVDVVTYVVTERAVARIGRGWLTRDDKHAWEKMRADVVGELEDHEQFNAALDALWPILTPEDVLAQLYTSHERLRAAGAPECLWRADGEAWTVSDVPLLDELVDLLGRNKAADEAAERERREEEAYAAGVLDLMVDREDLMDDEDHLLAQDLIDAEELADRFKEQDNRELSERAAADREWTYGHVVVDEAQELSEMDWRLLMRRCPRRSFTIVGDLAQRRSPAGARSWGAMLDSYVPGRWVYKSLSVNYRTPAEIMAVAAAVLAEFAPDATPPDSVRACGVAPWARQVTDDDIASAIAEFVSEEAGREGTSVVIGPPDVPGTVPPSETKGLEFDAVLVVEPERILADGPRGAAELYVALTRATQRLGVLYRDALPQALAGLAEGDAAATVEQRTSA
Regarding B4, in assay [2], the binding result was “binds”.
